Values after ≈ are worked out from the molar mass of the structure shown.
Experiments:
Enterococcus faecalis [1] = assay: Antibacterial activity against vancomycin-resistant Enterococcus faecalis by CLSI M7-A7 broth microdilution method; assay type: functional
Outline: (§1)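 Reference broth microdilution MIC under aerobic conditions on recent (2005–2008) clinical isolates from U.S. and non-U.S. sites. QC strains run alongside, required to fall within published CLSI ranges.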

Enterococcus faecalis [2] = assay: Antibacterial activity against vancomycin-susceptible Enterococcus faecalis by CLSI M7-A7 broth microdilution method; assay type: functional; outline: as §1

CN[C@H](CC(C)C)C(=O)N[C@H]1C(=O)N[C@@H](CC(N)=O)C(=O)N[C@H]2C(=O)N[C@H]3C(=O)N[C@H](C(=O)N[C@H](C(=O)O)c4cc(O)cc(O)c4-c4cc3ccc4O)[C@H](O)c3ccc(c(Cl)c3)Oc3cc2cc(c3O[C@@H]2O[C@H](CO)[C@@H](O)[C@H](O)[C@H]2O[C@H]2C[C@](C)(N)[C@H](O)[C@H](C)O2)Oc2ccc(cc2Cl)[C@H]1O [VANCOMYCIN]
MIC (Enterococcus faecalis [1]): > 4 µg/mL
MIC (Enterococcus faecalis [2]): 0.5 µg/mL (≈ 0.345 µM)

From ChEMBL document CHEMBL1649571, “In vitro activity of TR-700, the active ingredient of the antibacterial prodrug TR-701, a novel oxazolidinone antibacterial agent” (2009)
